PubChem BioAssay AID1259327, Drosophila RNAi Screening Center | 2017

Assay: 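Knock-downs altering cellular ATP with no metal added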
Cells: Drosophila S2R+ cells
Reagent: long dsRNA against Drosophila genes
Timing: 5 days (water added on day 4, read one day later)
Challenge: water added as vehicle, no metal, one day before read-out
Read-out: 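Total ATP measured by luciferase light, scaled to plate mean, duplicates averaged, then z-scored across plates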
Direction: ATP z-score: higher = more total ATP than typical wells; ATP luminescence: higher = more total ATP
Active means: 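a hit is any knock-down whose absolute ATP z-score is greater than 1.5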
Meaning of the calls: active = hit: ATP up or down; inactive = no clear ATP change
Shown is a random part of about 3,100 reagents. Of all reagents, 378 (12%) are marked active. 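Hits include both directions; z-score sign shows ATP rise or fall; raw luminescence values are not plate-normalised.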 A number with no mark means an inactive call. Not given: the amount of reagent.

no.	target	amplicon	ATP z-score, duplicate mean	ATP luminescence, replicate 1 (RLU)	ATP luminescence, replicate 2 (RLU)
1	PGRP-LA (Peptidoglycan recognition protein LA)	DRSC10327	0.796	9.81e5	1.02e6
2	PGRP-LA (Peptidoglycan recognition protein LA)	DRSC10414	0.473	8.17e5	7.69e5
3	Or82a (Odorant receptor 82a)	DRSC11996	-0.656	4.82e5	7.54e5
4	Or82a (Odorant receptor 82a)	DRSC39482	1.02	5.03e5	5.37e5
5	CadN (Cadherin-N)	DRSC03286	-0.885	6.44e5	6.20e5
6	CadN (Cadherin-N)	DRSC27368	-1.2	7.86e5	9.24e5
7	Nup133 (Nucleoporin 133kD)	DRSC16150	-0.504	6.97e5	6.12e5
8	bumpel	DRSC16100	1.23	3.03e5	1.03e6
9	5-HT2A (5-hydroxytryptamine (serotonin) receptor 2A)	DRSC11990	0.932	8.32e5	8.30e5
10	5-HT2A (5-hydroxytryptamine (serotonin) receptor 2A)	DRSC39711	1.05	5.34e5	5.40e5
11	CG4101	DRSC10400	-0.741	7.80e5	8.17e5
12	CG32687	DRSC18210	0.247	7.35e5	8.06e5
13	CG32687	DRSC18237	-1.81 (active)	6.02e5	5.77e5
14	CG32687	DRSC37079	3.87 (active)	8.93e5	9.22e5
15	CG32987	DRSC22373	-0.135	8.85e5	7.81e5
16	CG32987	DRSC28687	0.892	9.86e5	8.79e5
17	bib (big brain)	DRSC03496	-1.43	3.51e5	4.08e5
18	Shal (Shaker cognate l)	DRSC09625	-0.42	7.14e5	6.70e5
19	Shal (Shaker cognate l)	DRSC11283	-0.175	8.82e5	8.64e5
20	Slc25A46a	DRSC20125	-0.326	6.99e5	6.46e5
21	Slc25A46a	DRSC39802	0.105	4.40e5	5.36e5
22	Oatp26F (Organic anion transporting polypeptide 26F)	DRSC02149	0.293	7.91e5	7.24e5
23	Oatp26F (Organic anion transporting polypeptide 26F)	DRSC02695	-1.19	5.04e5	5.20e5
24	Oatp26F (Organic anion transporting polypeptide 26F)	DRSC27346	-0.0517	6.83e5	7.63e5
25	Elo68beta (Elongase 68beta)	DRSC09860	-0.0598	9.03e5	8.73e5
26	stj (straightjacket)	DRSC06124	-1.23	5.96e5	6.03e5
27	Gr22a (Gustatory receptor 22a)	DRSC26809	-0.771	9.86e5	9.43e5
28	CG1698	DRSC06640	0.212	7.27e5	7.82e5
29	CG1698	DRSC24314	0.25	9.30e5	7.82e5
30	CG10081	DRSC05962	1.64 (active)	7.11e5	8.26e5
31	CG10081	DRSC24787	0.511	9.07e5	9.20e5
32	Ndae1 (Na[+]-driven anion exchanger 1)	DRSC02770	1.28	4.57e5	6.89e5
33	Ndae1 (Na[+]-driven anion exchanger 1)	DRSC39781	1.32	5.42e5	6.03e5
34	CG9467	DRSC16498	0.202	7.09e5	7.44e5
35	pHCl-1 (pH-sensitive chloride channel 1)	DRSC09401	3.63 (active)	9.77e5	7.61e5
36	pHCl-1 (pH-sensitive chloride channel 1)	DRSC09991	-0.631	6.50e5	6.99e5
37	pHCl-1 (pH-sensitive chloride channel 1)	DRSC10589	-0.162	1.01e6	7.50e5
38	Ca-alpha1T (Ca[2+]-channel protein alpha[[1]] subunit T)	DRSC17842	-0.46	8.15e5	8.12e5
39	Ca-alpha1T (Ca[2+]-channel protein alpha[[1]] subunit T)	DRSC18357	2.24 (active)	1.03e6	9.43e5
40	Ca-alpha1T (Ca[2+]-channel protein alpha[[1]] subunit T)	DRSC21430	1.34	7.19e5	6.68e5
41	TM9SF4 (Transmembrane 9 superfamily protein member 4)	DRSC01888	1.48	6.30e5	5.31e5
42	TM9SF4 (Transmembrane 9 superfamily protein member 4)	DRSC39660	0.487	4.95e5	5.02e5
43	Baldspot	DRSC09671	-0.857	8.26e5	7.43e5
44	Ntl (Neurotransmitter transporter-like)	DRSC03003	1.21	8.76e5	8.33e5
45	Ntl (Neurotransmitter transporter-like)	DRSC28007	1.53 (active)	9.42e5	9.59e5
46	CG40006	DRSC03787	0.406	6.48e5	9.34e5
47	CG40006	DRSC03814	0.144	7.10e5	8.09e5
48	SecCl (Secretory chloride channel)	DRSC10887	0.0516	8.16e5	9.85e5
49	SecCl (Secretory chloride channel)	DRSC39894	-1.54 (active)	4.33e5	4.75e5
50	Mdr65 (Multi drug resistance 65)	DRSC11220	1	1.06e6	9.98e5
51	Desat2 (Desaturase 2)	DRSC25894	-0.0123	8.44e5	8.54e5
52	Desat2 (Desaturase 2)	DRSC39498	0.737	4.61e5	5.40e5
53	blot (bloated tubules)	DRSC11328	-0.424	6.97e5	6.74e5
54	blot (bloated tubules)	DRSC26157	0.713	9.40e5	9.38e5
55	slo (slowpoke)	DRSC17057	0.486	7.44e5	7.67e5
56	SP1173	DRSC11277	0.445	8.06e5	7.50e5
57	Task7 (TWIK-related acid-sensitive K[+] channel 7)	DRSC16477	-0.766	2.83e5	6.31e5
58	Task7 (TWIK-related acid-sensitive K[+] channel 7)	DRSC26662	-0.866	9.15e5	1.05e6
59	CG32206	DRSC10095	-0.802	7.74e5	8.07e5
60	CG32206	DRSC10096	0.525	6.64e5	9.44e5
61	Zip42C.2 (Zinc/iron regulated transporter-related protein 42C.2)	DRSC05004	0.0457	6.96e5	5.51e5
62	Zip42C.2 (Zinc/iron regulated transporter-related protein 42C.2)	DRSC39021	0.0675	5.21e5	6.50e5
63	Hmt-1 (Heavy metal tolerance factor 1)	DRSC15555	-0.163	6.98e5	6.80e5
64	Hmt-1 (Heavy metal tolerance factor 1)	DRSC39577	0.563	5.04e5	5.03e5
65	VhaM9.7-a (Vacuolar H[+] ATPase M9.7 subunit a)	DRSC08289	-0.781	7.81e5	8.05e5
66	VhaM9.7-a (Vacuolar H[+] ATPase M9.7 subunit a)	DRSC28340	0.934	9.91e5	8.84e5
67	bond (james bond)	DRSC16135	0.0766	7.26e5	7.01e5
68	bond (james bond)	DRSC23724	0.597	9.75e5	8.74e5
69	ZnT63C (Zinc transporter 63C)	DRSC08032	-1.36	5.68e5	6.24e5
70	ZnT63C (Zinc transporter 63C)	DRSC08033	-0.97	6.33e5	6.41e5
71	ZnT63C (Zinc transporter 63C)	DRSC23528	-2.52 (active)	6.12e5	4.35e5
72	CG7149	DRSC03016	-0.839	4.56e5	3.81e5
73	CG7149	DRSC39817	-1.62 (active)	3.73e5	3.57e5
74	lbm (late bloomer)	DRSC07643	-0.661	5.26e5	5.93e5
75	lbm (late bloomer)	DRSC39509	-1.28	3.61e5	3.76e5
76	CG42269	DRSC10672	0.368	9.49e5	9.39e5
77	CG42269	DRSC24477	0.253	9.39e5	8.24e5
78	mthl8 (methuselah-like 8)	DRSC08211	-0.53	7.23e5	6.24e5
79	mthl8 (methuselah-like 8)	DRSC08311	0.437	5.32e5	7.87e5
80	Cad88C (Cadherin 88C)	DRSC15486	-0.392	2.74e5	7.39e5
81	Cad88C (Cadherin 88C)	DRSC26126	0.0842	8.57e5	8.64e5
82	Elk (Eag-like K[+] channel)	DRSC07608	0.409	7.79e5	7.71e5
83	Elk (Eag-like K[+] channel)	DRSC39479	2.38 (active)	6.99e5	5.26e5
84	Lap1	DRSC07454	0.34	6.85e5	6.15e5
85	Lap1	DRSC39730	0.541	4.87e5	5.18e5
86	alphaKap4 (alpha Karyopherin-4)	DRSC09823	0.724	1.01e6	9.71e5
87	alphaKap4 (alpha Karyopherin-4)	DRSC39588	0.068	4.61e5	4.79e5

As entered above.
blot (bloated tubules) [DRSC11328], ATP luminescence, replicate 1 (RLU) = 6.97e5
TM9SF4 (Transmembrane 9 superfamily protein member 4) [DRSC01888], ATP luminescence, replicate 2 (RLU) → 5.31e5
Under “ATP luminescence, replicate 2 (RLU)”, Mdr65 (Multi drug resistance 65) [DRSC11220] has 9.98e5
Shal (Shaker cognate l) [DRSC11283], ATP luminescence, replicate 1 (RLU) = 8.82e5
